Reference: patent US5698411A, “Method for determining activity of enzymes in metabolically active whole cells” (priority 1995, dated 1997)
The name of at least one read-out is uncertain. Numbered stars: 1 amine (or outer) side, 2 acyl side, 3 side chain; on linkers, the order of the positions; unused ones are H or OH. Bridge positions count the residues as written; N and C are the ends. Peptide text beside a SMILES is read from it. I, II: the chains in the order shown. Rhodamine110 = O=C1OC2(c3ccc(N[*:1])cc3Oc3cc(N[*:2])ccc32)c2ccccc21

Assays:
Format in all cases: cell-based, human
lymphocytes = experiment: aberrant enzyme activities in febrile children, lymphocytes (Table 7)
monocytes = experiment: aberrant enzyme activities in febrile children, monocytes (Table 7)
granulocytes = experiment: aberrant enzyme activities in febrile children, granulocytes (Table 7)

Row | SMILES | aberrant enzyme activity, LYMPHS (lymphocytes; P89 Viral Stomatitis) | aberrant enzyme activity, LYMPHS (lymphocytes; P92 Adenitis) | aberrant enzyme activity, LYMPHS (lymphocytes; P95 Viral Syndrome) | aberrant enzyme activity, LYMPHS (lymphocytes; P96 Viral Syndrome) | aberrant enzyme activity, LYMPHS (lymphocytes; P101 Fever -- Unknown Origin) | aberrant enzyme activity, LYMPHS (lymphocytes; P103 Viral Syndrome) | aberrant enzyme activity, MONOS (monocytes; P89 Viral Stomatitis) | aberrant enzyme activity, MONOS (monocytes; P92 Adenitis) | aberrant enzyme activity, MONOS (monocytes; P95 Viral Syndrome) | aberrant enzyme activity, MONOS (monocytes; P96 Viral Syndrome) | aberrant enzyme activity, MONOS (monocytes; P97 Pyelonephritis) | aberrant enzyme activity, MONOS (monocytes; P101 Fever -- Unknown Origin) | aberrant enzyme activity, MONOS (monocytes; P103 Viral Syndrome) | aberrant enzyme activity, GRANS (granulocytes; P89 Viral Stomatitis) | aberrant enzyme activity, GRANS (granulocytes; P92 Adenitis) | aberrant enzyme activity, GRANS (granulocytes; P95 Viral Syndrome) | aberrant enzyme activity, GRANS (granulocytes; P96 Viral Syndrome) | aberrant enzyme activity, GRANS (granulocytes; P97 Pyelonephritis) | aberrant enzyme activity, GRANS (granulocytes; P101 Fever -- Unknown Origin) | aberrant enzyme activity, GRANS (granulocytes; P103 Viral Syndrome) | other results
1 | CC(=O)Oc1ccc2c(c1)Oc1cc(OC(C)=O)ccc1C21OC(=O)c2ccccc21 [FDA, fluorescein diacetate, reference compound] | + (>0.25 Increase over normal range) | + (>0.25 Increase over normal range) | + (>0.25 Increase over normal range) | + (>0.25 Increase over normal range) | + (>0.25 Increase over normal range) | + (>0.25 Increase over normal range) | + (>0.25 Increase over normal range) | + (>0.25 Increase over normal range) | + (>0.25 Increase over normal range) | + (>0.25 Increase over normal range) | + (>0.25 Increase over normal range) | + (>0.25 Increase over normal range) | + (>0.25 Increase over normal range) | + (>0.25 Increase over normal range) | + (>0.25 Increase over normal range) | + (>0.25 Increase over normal range) | + (>0.25 Increase over normal range) | + (>0.25 Increase over normal range) | + (>0.25 Increase over normal range) | + (>0.25 Increase over normal range) | –
2 | CC(=O)Oc1ccc2c(c1)Oc1cc(OC(C)=O)ccc1C21OC(=O)c2ccccc21 [FDA-NAF, fluorescein diacetate, reference compound] | + (>0.25 Increase over normal range) | + (>0.25 Increase over normal range) | + (>0.25 Increase over normal range) | + (>0.25 Increase over normal range) | + (>0.25 Increase over normal range) | + (>0.25 Increase over normal range) | + (>0.25 Increase over normal range) | + (>0.25 Increase over normal range) | + (>0.25 Increase over normal range) | + (>0.25 Increase over normal range) | – | + (>0.25 Increase over normal range) | + (>0.25 Increase over normal range) | + (>0.25 Increase over normal range) | + (>0.25 Increase over normal range) | + (>0.25 Increase over normal range) | + (>0.25 Increase over normal range) | – | + (>0.25 Increase over normal range) | + (>0.25 Increase over normal range) | aberrant enzyme activity, MONOS (monocytes; P99 Viral Syndrome): + (>0.25 Increase over normal range); aberrant enzyme activity, GRANS (granulocytes; P99 Viral Syndrome): + (>0.25 Increase over normal range)
3 | CC(C)C[C@H](NC(=O)[C@@H]1CCCN1C(=O)CN)C(=O)NCC(=O)N1CCC[C@H]1C(=O)Nc1ccc2c(c1)Oc1cc(NC(=O)[C@@H]3CCCN3C(=O)CNC(=O)[C@H](CC(C)C)NC(=O)[C@@H]3CCCN3C(=O)CN)ccc1C21OC(=O)c2ccccc21 [GPLGP, (H-Gly--Pro--Leu--Gly--Pro)2 Rho 110 .2TFA] (I: H-GPLGP / II: H-GPLGP; linker I:C-II:C via Rhodamine110) | – | - (>0.25 Decrease over normal range) | – | – | – | - (>0.25 Decrease over normal range) | – | - (>0.25 Decrease over normal range) | – | – | - (>0.25 Decrease over normal range) | – | - (>0.25 Decrease over normal range) | – | - (>0.25 Decrease over normal range) | – | – | - (>0.25 Decrease over normal range) | – | - (>0.25 Decrease over normal range) | aberrant enzyme activity, LYMPHS (lymphocytes; P97 Pyelonephritis): - (>0.25 Decrease over normal range); aberrant enzyme activity, MONOS (monocytes; P88 Enteritis): - (>0.25 Decrease over normal range)
